Experimental data: paper PMC11611271, “Rapid prediction of key residues for foldability by machine learning model enables the design of highly functional libraries with hyperstable constrained peptide scaffolds” (PLOS Computational Biology, 2024)
No constants are given. Whether binding was seen depends on the method and setting.

Sequences of proteins named here, by UniProt entry; tags and fusion partners are left off. Residues count along the entry.
UniProt P01732, residues 22-182: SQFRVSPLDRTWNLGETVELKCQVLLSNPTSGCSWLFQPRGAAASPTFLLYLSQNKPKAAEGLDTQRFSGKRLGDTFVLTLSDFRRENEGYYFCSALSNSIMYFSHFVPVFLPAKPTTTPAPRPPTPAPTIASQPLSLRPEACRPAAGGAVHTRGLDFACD
UniProt P10747, residues 19-152: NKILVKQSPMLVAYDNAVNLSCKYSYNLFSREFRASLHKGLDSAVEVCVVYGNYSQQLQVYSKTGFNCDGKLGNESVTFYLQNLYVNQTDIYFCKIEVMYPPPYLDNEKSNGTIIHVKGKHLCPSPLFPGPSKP

Legend:
[1] = target: T1, CD8α-Fc (UniProt P01732 22-182); experiment: condition: approximately 100 μM (start of the dilution series); SPR; Biacore S200, Fc-fusion target on Sensor Chip Protein A, peptide flowed, single-cycle kinetics, three-fold dilution series from approximately 100 μM, 25°C, 30 μl/min, HBS-EP with 5% DMSO; 1:1 binding (kinetic) model, or no binding seen; both purified
T1 construct: CD8 alpha chain, bought as Fc fusion; captured on a Protein A sensor chip by its Fc; source: bought: R&D, #AVI10927

[2] = target: CD28-Fc (Homo sapiens, UniProt P10747); experiment: as above

Binder	binding [1]	binding [2]
PCECLVTPYKDDYKSSEECERLCRKLGVTNCRVHCG [5ji4-CD8-8]	no binding	
PCECEDTTFFIIFNSSEECERLCRKLGVTNCRVHCG [5ji4-CD28-4]		no binding
